PubChem BioAssay AID1671195, Yale University, 2021
Aim: 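Regulators of LDL receptor activity judged by labelled LDL uptake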 (primary screen). Cells: human Huh7 hepatoma cells. Reagents: siRNA pool against human genes, 18 nM. Time to read-out: about 2 to 2.5 days of knockdown, then 8 h LDL uptake. Conditions: DiI-labelled LDL at 30 µg/ml for 8 h, in lipoprotein-deficient serum medium. Measured: 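Per-cell DiI-LDL intensity by automated imaging; well means scaled to the plate median and given as a robust z-score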. Scale: robust z-score: higher = more LDL uptake after knockdown. Active means: 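Active when two or more replicates show a robust z-score above 2 or below -2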.
In all, the deposit lists about 22,000 reagents; this is an unselected part. In the full data, about 1,510 (6.9%) are marked active. 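Active includes knockdowns raising or lowering LDL uptake; positive z-scores mean more uptake, negative mean less.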

C9orf40
- robust z-score, replicate 1: 1.68
- robust z-score, replicate 2: 0.796
- robust z-score, replicate 3: 3.22
- outcome: inactive

ARPC1B
- robust z-score, replicate 1: 0.553
- robust z-score, replicate 2: -0.114
- robust z-score, replicate 3: 0.22
- outcome: inactive

CEBPD
- robust z-score, replicate 1: -0.25
- robust z-score, replicate 2: 0.164
- robust z-score, replicate 3: 2.6
- outcome: inactive

RGS14
- robust z-score, replicate 1: -1.3
- robust z-score, replicate 2: -1.11
- robust z-score, replicate 3: -0.967
- outcome: inactive

TEFM
- robust z-score, replicate 1: 2.88
- robust z-score, replicate 2: 1.77
- robust z-score, replicate 3: 1.39
- outcome: inactive

CNNM2
- robust z-score, replicate 1: -0.0808
- robust z-score, replicate 2: 0.745
- robust z-score, replicate 3: 0.539
- outcome: inactive

IDH3B
- robust z-score, replicate 1: 1.06
- robust z-score, replicate 2: 0.744
- robust z-score, replicate 3: 1.35
- outcome: inactive

VWA3A
- robust z-score, replicate 1: 0.0017
- robust z-score, replicate 2: -0.693
- robust z-score, replicate 3: 0.249
- outcome: inactive

NEK11
- robust z-score, replicate 1: 1.76
- robust z-score, replicate 2: 2.44
- robust z-score, replicate 3: 1.4
- outcome: inactive

ECHS1
- robust z-score, replicate 1: -0.923
- robust z-score, replicate 2: 1.52
- robust z-score, replicate 3: -0.728
- outcome: inactive

OR56B4
- robust z-score, replicate 1: -0.714
- robust z-score, replicate 2: -0.843
- robust z-score, replicate 3: -1.49
- outcome: inactive

CAPN8
- robust z-score, replicate 1: -0.0466
- robust z-score, replicate 2: 0.322
- robust z-score, replicate 3: 0.34
- outcome: inactive

METTL22
- robust z-score, replicate 1: 1.34
- robust z-score, replicate 2: 0.47
- robust z-score, replicate 3: 0.618
- outcome: inactive

INSR
- robust z-score, replicate 1: -0.848
- robust z-score, replicate 2: -1.15
- robust z-score, replicate 3: -0.423
- outcome: inactive

S100A3
- robust z-score, replicate 1: -0.441
- robust z-score, replicate 2: -0.371
- robust z-score, replicate 3: -0.603
- outcome: inactive

Individual results from the list.
OR56B4, robust z-score, replicate 3: -1.49
ARPC1B, robust z-score, replicate 1: 0.553
Result of VWA3A under “robust z-score, replicate 3”: 0.249

The list goes on.
ACAT1
- robust z-score, replicate 1: -0.771
- robust z-score, replicate 2: -0.289
- robust z-score, replicate 3: -0.845
- outcome: inactive

MTRF1
- robust z-score, replicate 1: -1.64
- robust z-score, replicate 2: -1.56
- robust z-score, replicate 3: -2.01
- outcome: inactive

GLT1D1
- robust z-score, replicate 1: 0.781
- robust z-score, replicate 2: 1.13
- robust z-score, replicate 3: 0.148
- outcome: inactive

BBS7
- robust z-score, replicate 1: -0.396
- robust z-score, replicate 2: 0.158
- robust z-score, replicate 3: -0.52
- outcome: inactive

BHLHA15
- robust z-score, replicate 1: -0.492
- robust z-score, replicate 2: -0.346
- robust z-score, replicate 3: -0.539
- outcome: inactive

CSNK1G2
- robust z-score, replicate 1: -0.176
- robust z-score, replicate 2: -0.896
- robust z-score, replicate 3: -0.684
- outcome: inactive

CD8A
- robust z-score, replicate 1: 0.68
- robust z-score, replicate 2: 0.929
- robust z-score, replicate 3: 0.239
- outcome: inactive

DIRC1
- robust z-score, replicate 1: -0.259
- robust z-score, replicate 2: 0.81
- robust z-score, replicate 3: -0.062
- outcome: inactive

BRICD5
- robust z-score, replicate 1: 0.541
- robust z-score, replicate 2: -0.0989
- robust z-score, replicate 3: -0.0478
- outcome: inactive
